The record followed here is publication PMC7862231.

The assay deals with T1, Mxi1, bait of the tandem affinity purification (human) (UniProt P50539).
T1 sequence: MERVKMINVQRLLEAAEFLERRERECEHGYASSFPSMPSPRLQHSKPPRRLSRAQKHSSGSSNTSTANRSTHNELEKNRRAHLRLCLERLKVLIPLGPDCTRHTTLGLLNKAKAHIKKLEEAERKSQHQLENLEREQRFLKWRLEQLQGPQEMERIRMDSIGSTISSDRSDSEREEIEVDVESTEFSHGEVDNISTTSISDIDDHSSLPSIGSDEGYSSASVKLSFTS
The assay can be described thus: affinity purification with mass spectrometry; tandem affinity purification/MS analysis to identify Mxi1-binding proteins, conducted previously (ref. 20); hit shown in Supplementary Fig. 1.

No constants are given. Whether binding was seen depends on the method and setting. In cells and extracts the contact can be indirect. A yes stands for co-enrichment or nearness to the bait. Other partners may have been found.

B1: UBE2O found in the tandem affinity purification of Mxi1 (enzyme, UniProt Q9C0C9 1-1292)
chain: MADPAAPTPAAPAPAQAPAPAPEAVPAPAAAPVPAPAPASDSASGPSSDSGPEAGSQRLLFSHDLVSGRYRGSVHFGLVRLIHGEDSDSEGEEEGRGSSGCSEAGGAGHEEGRASPLRRGYVRVQWYPEGVKQHVKETKLKLEDRSVVPRDVVRHMRSTDSQCGTVIDVNIDCAVKLIGTNCIIYPVNSKDLQHIWPFMYGDYIAYDCWLGKVYDLKNQIILKLSNGARCSMNTEDGAKLYDVCPHVSDSGLFFDDSYGFYPGQVLIGPAKIFSSVQWLSGVKPVLSTKSKFRVVVEEVQVVELKVTWITKSFCPGGTDSVSPPPSVITQENLGRVKRLGCFDHAQRQLGERCLYVFPAKVEPAKIAWECPEKNCAQGEGSMAKKVKRLLKKQVVRIMSCSPDTQCSRDHSMEDPDKKGESKTKSEAESASPEETPDGSASPVEMQDEGAEEPHEAGEQLPPFLLKEGRDDRLHSAEQDADDEAADDTDDTSSVTSSASSTTSSQSGSGTSRKKSIPLSIKNLKRKHKRKKNKITRDFKPGDRVAVEVVTTMTSADVMWQDGSVECNIRSNDLFPVHHLDNNEFCPGDFVVDKRVQSCPDPAVYGVVQSGDHIGRTCMVKWFKLRPSGDDVELIGEEEDVSVYDIADHPDFRFRTTDIVIRIGNTEDGAPHKEDEPSVGQVARVDVSSKVEVVWADNSKTIILPQHLYNIESEIEESDYDSVEGSTSGASSDEWEDDSDSWETDNGLVEDEHPKIEEPPIPPLEQPVAPEDKGVVISEEAATAAVQGAVAMAAPMAGLMEKAGKDGPPKSFRELKEAIKILESLKNMTVEQLLTGSPTSPTVEPEKPTREKKFLDDIKKLQENLKKTLDNVAIVEEEKMEAVPDVERKEDKPEGQSPVKAEWPSETPVLCQQCGGKPGVTFTSAKGEVFSVLEFAPSNHSFKKIEFQPPEAKKFFSTVRKEMALLATSLPEGIMVKTFEDRMDLFSALIKGPTRTPYEDGLYLFDIQLPNIYPAVPPHFCYLSQCSGRLNPNLYDNGKVCVSLLGTWIGKGTERWTSKSSLLQVLISIQGLILVNEPYYNEAGFDSDRGLQEGYENSRCYNEMALIRVVQSMTQLVRRPPEVFEQEIRQHFSTGGWRLVNRIESWLETHALLEKAQALPNGVPKASSSPEPPAVAELSDSGQQEPEDGGPAPGEASQGSDSEGGAQGLASASRDHTDQTSETAPDASVPPSVKPKKRRKSYRSFLPEKSGYPDIGFPLFPLSKGFIKSIRGVLTQFRAALLEAGMPECTEDK
Consider B1, for which the binding entry is listed as “binds”.
